Measurements: PubChem BioAssay AID1671190 (National Center for Advancing Translational Sciences (NCATS), 2021)
Where “and” joins values, the source holds several entries; their conditions need not be identical. Equal values may be shown once. The campaign covered roughly 580,000 compounds. About 6,100 (1.1%) were called active. This list was built around the results that the source calls inconclusive (neither active nor inactive); the mix of calls is not that of the screen. The call rests on the fitted dose curve; in most records, active means well fitted inhibition curve with a large enough effect; inconclusive means small, poorly fitted or top-dose-only effect, or another doubt; inactive means no such curve, though single readings can be large or run the other way. Potencies of inconclusive entries are doubtful fits and often do not repeat.

Amino acid sequences for entries named in this document (tags omitted). A change or cut given only in a name is not applied to a line headed by its entry.
UniProt P18054: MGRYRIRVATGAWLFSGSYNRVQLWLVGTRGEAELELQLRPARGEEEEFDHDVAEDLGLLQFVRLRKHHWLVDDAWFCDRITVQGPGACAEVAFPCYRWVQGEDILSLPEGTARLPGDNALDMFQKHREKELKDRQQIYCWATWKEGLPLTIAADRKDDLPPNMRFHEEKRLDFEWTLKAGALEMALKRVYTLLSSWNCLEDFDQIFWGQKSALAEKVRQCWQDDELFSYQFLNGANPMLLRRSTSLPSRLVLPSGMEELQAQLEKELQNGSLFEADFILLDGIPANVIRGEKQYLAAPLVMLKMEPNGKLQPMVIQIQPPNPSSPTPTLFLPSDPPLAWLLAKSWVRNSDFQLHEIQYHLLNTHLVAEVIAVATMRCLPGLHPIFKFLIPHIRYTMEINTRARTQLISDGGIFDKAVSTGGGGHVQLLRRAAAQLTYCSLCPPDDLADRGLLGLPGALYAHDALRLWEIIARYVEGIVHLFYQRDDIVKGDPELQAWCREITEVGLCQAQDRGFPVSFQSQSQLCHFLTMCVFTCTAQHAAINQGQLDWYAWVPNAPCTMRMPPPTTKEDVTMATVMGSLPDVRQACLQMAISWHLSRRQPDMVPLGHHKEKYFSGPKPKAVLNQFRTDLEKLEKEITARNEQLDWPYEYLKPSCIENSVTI

Target: Polyunsaturated fatty acid lipoxygenase ALOX12 (Homo sapiens) (UniProt P18054)
Assay: Primary qHTS assay for inhibitors of human arachidonate 12S-lipoxygenase (ALOX12): Round 2
Conditions: purified 12hLO, xylenol orange hydroperoxide absorbance; activity change, negative = inhibition: at 108 µM (top of the series) unless noted
Procedure, shortened: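 Hydroperoxide product was detected by ferrous iron/xylenol orange as the 573 to 405 nm absorbance ratio. Arachidonic acid at 40 uM (final) was turned over for 30 min at room temperature by 150 nM human 12hLO, pH 7.0 Hepes buffer, after 15 min compound preincubation.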
On the % scale 0 is the no-effect control and ±100 the full control effect; potency means the concentration at half of the fitted maximal effect.

Structure (SMILES) | activity change, negative = inhibition | Potency
CCCc1c(C)c2ccc(OCC(=O)OCC)cc2oc1=O | inactive: 28.6% | 
Cc1ccc(NC(=O)CSc2nc(=O)n(CCCN(C)C)c3c2CCC3)cc1F |  | inconclusive: 100 µM [inhibitor, partial curve, poor fit]
Cc1nn(C)c(C)c1-c1c(C#N)c(N)nc2c1CCCCCC2 | inactive: 3.93% | 
CCCC(=O)Nc1nc2ccc(S(N)(=O)=O)cc2s1 |  | inconclusive: 79.4 µM [inhibitor, partial curve, poor fit]
COc1cccc(Nc2ccc3c(n2)C(C)(C(=O)NC2CCC2)CN(C)C3)c1 (stereo unspecified) |  | inconclusive: 63.1 µM [inhibitor, partial curve, poor fit]
CC(C)CC(=O)NC(=S)Nc1ccccc1C(F)(F)F |  | inconclusive: 44.7 µM [inhibitor, partial curve, poor fit]
CCCCCCCCN1C(=O)[C@@H](CC(=O)N2CCCCC2)C[C@@]2(C(=O)OC)C1=C[C@H](C(C)(C)C)O[C@@H]2C | inactive: 14.8% | 
CCC(CC)NC(=O)c1cccc(Oc2ccccc2)c1 |  | inconclusive: 112 µM [inhibitor, single point]
Cc1nc2ccccc2n1CCOc1ccc([N+](=O)[O-])cc1 |  | inconclusive: 0.316 µM [inhibitor, full curve, poor fit]
CN(NC(=O)/C=C/C(=O)O)c1ncc(C(F)(F)F)cc1Cl |  | inconclusive: 1 µM [inhibitor, full curve]
CCCn1cnc2c(Sc3c([N+](=O)[O-])ncn3C)nc(N)nc21 | inactive: 6.77% | 
COc1cc([N+](=O)[O-])ccc1NC(=O)C[n+]1cccc(C(C)=O)c1 |  | inconclusive: 100 µM [inhibitor, single point]
CC(c1cccc(C(F)(F)F)c1)N(Cc1nc2ccccc2o1)C1CC1 (stereo unspecified) |  | inconclusive: 100 µM [inhibitor, single point]
COC(=O)c1sc2nc(C)nc(SCC(=O)Nc3sccc3C(N)=O)c2c1C | inactive: 20.5% | 
O=C(CSc1nnc(-c2ccncc2)s1)Nc1ccc(Cl)c(C(=O)O)c1 |  | inconclusive: 63.1 µM [inhibitor, partial curve, poor fit]
O=C(CC1C(=O)OCCN1Cc1ccccc1)Nc1ccc(F)cc1 (stereo unspecified) |  | inconclusive: 79.4 µM [inhibitor, partial curve, poor fit]
Cc1nn(C)c2nc(-c3ccccn3)nc(NCC(c3ccco3)N(C)C)c12 (stereo unspecified) | inactive: 48.2% | 
Cc1ccc(SCc2ccc(C(=O)Nc3cccc(C)c3C)cc2)cc1 | inconclusive: -32.5% [inhibitor] | 
Cn1c(COc2ccccc2Cl)nnc1SC1CCCCCC1=O (stereo unspecified) | inactive: 9.55% | 
O=C(NC(=S)NCCO)c1sc2ccccc2c1Cl |  | inconclusive: 50.1 µM [inhibitor, partial curve, poor fit]
CC1CCN(S(=O)(=O)c2ccc(C(=O)Nc3sc4c(c3C(N)=O)CC(C)(C)NC4(C)C)cc2)CC1 |  | inconclusive: 126 µM [inhibitor, single point]
Cc1ccc(-n2c(O)c(C=Nc3ccc4c(c3)OCO4)c3ccccc3c2=O)cc1C | inactive: 13.2% | 

Structure (SMILES) | activity change, negative = inhibition | Potency
Cc1cccc(C)c1-n1ncc(C(=O)N2CCN(c3ccccn3)CC2)c1C1CCN(C(=O)OC(C)(C)C)CC1 |  | inconclusive: 112 µM [inhibitor, single point]
COCOCCn1cc(CN2CCS(=O)(=O)N(Cc3ccc(-c4ccc(Cl)c(Cl)c4)cc3)C(C(C)C)C2=O)nn1 (stereo unspecified) |  | inconclusive: 79.4 µM [inhibitor, partial curve, poor fit]
CCc1nc2c(OCc3ccc(C#N)cc3)cccn2c1N(C)C(=O)c1ccc(C)cc1 |  | inconclusive: 56.2 µM [inhibitor, full curve, poor fit]
CCC1=C(C(=O)OC)C(c2ccc(C)cc2C)N2C(CC(=O)Nc3ccc(OC)cc3)=CSC2=N1 (stereo unspecified) |  | inconclusive: 8.91 µM [inhibitor, full curve]
O=C(NCCS(=O)(=O)NCc1ccccc1)c1ccccc1 | inactive: 18.4% | 
N#Cc1ccc(CN2CCC(c3nc4ccc(F)cc4c(=O)[nH]3)CC2)cc1 |  | inconclusive: 89.1 µM [inhibitor, partial curve, poor fit]
Cc1ccc(SCc2cc(=O)oc3c(C)c(C)ccc23)cc1 |  | inconclusive: 79.4 µM [inhibitor, partial curve, poor fit]
CCC(C)(C)C(=O)NCc1ccc(OC)cc1 | inactive: -29.4% | 
Cc1ccc(-c2nnc(SCc3nc4ccccc4[nH]3)n2Cc2ccco2)cc1 | inactive: -10.5% | 
Cc1nc(CCNC(=O)C2CC2)no1 | inactive: 2.91% | 
O=C(Nc1ccc(CN2CCOCC2)cc1)c1ccc(F)cc1 | inactive: 57.7% | 
Cn1c(N)c(C(=O)N/N=C/c2ccccc2)sc1=S |  | inconclusive: 112 µM [inhibitor, single point]
O=C(Nc1ccccc1F)C1C(c2ccccc2)C1(Cl)Cl (stereo unspecified) |  | inconclusive: 89.1 µM [inhibitor, single point]
CCCN1CCC(=O)N(CCO)CC1 | inactive: -1.56% | 
Cc1ccc(C2=N/C(=C/c3cccs3)C(=O)N2Nc2ccccc2)cc1 |  | inconclusive: 0.501 µM [inhibitor, full curve, poor fit]
CCOc1cc(/C=N/Nc2nc(=O)[nH]nc2C)ccc1O | inactive: -21.4% | 
COc1ccc2[nH]c3c(c2c1)CCN1C(=O)C(CC(=O)NCCc2ccccn2)C[C@H](C(=O)N2CCCCC2)[C@@]31CCc1ccccc1 (stereo partly specified) |  | inconclusive: 44.7 µM [inhibitor, partial curve, poor fit]
COc1ccc2c(c1)CCc1c(C(=O)Nc3c(C)nn(Cc4ccc(Cl)c(Cl)c4)c3C)noc1-2 |  | inconclusive: 100 µM [inhibitor, partial curve, poor fit]
O=C1OCCC1Sc1nnc(-c2ccccc2)o1 (stereo unspecified) | inactive: 0% | 
CNc1oc(-c2ccccc2)nc1S(=O)(=O)c1ccc(C)cc1 |  | inactive and inconclusive: 39.8 µM [inhibitor, partial curve, poor fit]
CN(Cc1ccco1)c1nc(-c2cccc(C#N)c2)nc2ccccc12 |  | inconclusive: 3.55 µM [inhibitor, full curve, poor fit]
COc1cccc(OC)c1NC(=O)c1ccc(-c2cc(Cl)ccc2Cl)o1 |  | inconclusive: 89.1 µM [inhibitor, single point]

Entries of single compounds, looked up by structure.
`CNc1oc(-c2ccccc2)nc1S(=O)(=O)c1ccc(C)cc1` as listed: Potency: inactive and inconclusive: 39.8 µM [inhibitor, partial curve, poor fit]
`CCOc1cc(/C=N/Nc2nc(=O)[nH]nc2C)ccc1O` as listed: activity change, negative = inhibition: inactive: -21.4%
`O=C(CSc1nnc(-c2ccncc2)s1)Nc1ccc(Cl)c(C(=O)O)c1` as listed: Potency: inconclusive: 63.1 µM [inhibitor, partial curve, poor fit]
`CCCn1cnc2c(Sc3c([N+](=O)[O-])ncn3C)nc(N)nc21` as listed: activity change, negative = inhibition: inactive: 6.77%

Next structures

Structure (SMILES) | activity change, negative = inhibition | Potency
S=c1[nH]nc(C2CCCCC2)n1Cc1ccccc1 |  | inconclusive: 44.7 µM [inhibitor, partial curve, poor fit]
O=C1c2cnc(-c3ccc(Oc4ccccc4)cc3)nc2OCCN1CC1CC1 | inactive: 1.18% [at 176 µM] | 
Cn1c(=O)c2c(nc(N3CCCC3)n2CC(=O)O)n(C)c1=O |  | inconclusive: 8.91 µM [inhibitor, full curve, poor fit]
COc1cc(F)ccc1S(=O)(=O)n1c(C)nc2ccccc21 |  | inconclusive: 7.94 µM [inhibitor, full curve]
CC(C)OCCCNc1nc2ccccc2nc1NS(=O)(=O)c1ccccc1 |  | inconclusive: 56.2 µM [inhibitor, partial curve, poor fit]
O=C(Cc1c(O)c2ccccc2[nH]c1=O)NCc1ccc(F)cc1 |  | inconclusive: 35.5 µM [inhibitor, single point]
O=C(O)C1=NOC2CN(Cc3cccc(C(F)(F)F)c3)CC12 (stereo unspecified) |  | inconclusive: 12.6 µM [inhibitor, full curve, poor fit]
CC(=O)N1CC2(CCN(Cc3ccc(Cl)cc3)CC2)Cc2ccccc21 |  | inconclusive: 89.1 µM [inhibitor, partial curve, poor fit]
CCC1=Nc2cc(C(=O)NCCCN3CCOCC3)ccc2Sc2ccc(Br)cc21 |  | inconclusive: 50.1 µM [inhibitor, partial curve, poor fit]
Cc1cccn2c(=O)c3cc(C(=O)NCc4ccccc4)c(=N)n(CCOCCO)c3nc12 |  | inconclusive: 100 µM [inhibitor, partial curve, poor fit]
COCCNC(=O)/C(C#N)=C\c1ccc(C(F)(F)F)cc1 |  | inconclusive: 3.16 µM [inhibitor, full curve, poor fit]
COc1ccccc1NS(=O)(=O)c1ccc(C)c(C(=O)N2CCN(c3ccc(O)cc3)CC2)c1 |  | inconclusive: 3.16 µM [inhibitor, full curve]
CC(=O)N1c2ccc(S(=O)(=O)N3CCCCCC3)cc2CC1C(=O)NCc1ccc(Cl)cc1 (stereo unspecified) |  | inconclusive: 112 µM [inhibitor, single point]
NS(=O)(=O)CC(=O)O |  | inconclusive: 79.4 µM [inhibitor, single point]
COc1ccc(Nc2nc(OC)nc(N3CCN(c4ccc(OC)cc4)CC3)n2)cc1 |  | inconclusive: 15.8 µM [inhibitor, partial curve, poor fit]
O=C(CCn1cc(Cl)cn1)N1CCOC(c2ccc(Cl)cc2)C1 (stereo unspecified) | inactive: -8.79% | 
Cc1oc(-c2cc(F)ccc2F)nc1CN1CCN(c2ncnc3ccccc23)CC1 | inactive: 7.95% | 
N#Cc1ccc(COC(=O)CCc2c[nH]c3ccccc23)cc1 |  | inconclusive: 141 µM [inhibitor, single point]
CCNC(=O)C(C)NC(=O)C1(c2cccc(C)c2)CCCC1 (stereo unspecified) |  | inconclusive: 0.224 µM [inhibitor, full curve, poor fit]
CCCOc1ccc(-c2nonc2NC(=O)c2oc3ccc(C)cc3c2C)cc1OCCC |  | inconclusive: 126 µM [inhibitor, partial curve, poor fit]
CCc1ccc2c(CN3CCCC3c3cccc(OC)c3)cc(=O)oc2c1 (stereo unspecified) |  | inconclusive: 11.2 µM [inhibitor, single point]
Cc1cccc(OCC(=O)Nc2ccc(C(=O)Nc3ccccc3C(=O)O)cc2)c1C |  | inconclusive: 44.7 µM [inhibitor, partial curve]
